In PMC6984649:
No constants are given. Whether binding was seen depends on the method and setting. Binding seen in cells or lysates may run through a third protein. Here binding means that the protein was enriched with, or labelled near, the bait; the list need not be complete.

Molecular target: TAP-tagged ZIKV NS3 (Zika virus)
Test: affinity purification with mass spectrometry; tandem affinity purification (TAP): 293T cells transfected with pNTAP-A-NS3 or pNTAP-A control vector, lysed 36 h post-transfection; streptavidin resin, then calmodulin resin; eluted with calmodulin elution buffer, TCA precipitation, mass spectrometry

Binder | binding
2ʹ,3ʹ-cyclic-nucleotide 3ʹ-phosphodiesterase (protein, UniProt P09543 1-421) MNRGFSRKSHTFLPKIFFRKMSSSGAKDKPELQFPFLQDEDTVATLLECKTLFILRGLPGSGKSTLARVIVDKYRDGTKMVSADAYKITPGARGAFSEEYKRLDEDLAAYCRRRDIRILVLDDTNHERERLEQLFEMADQYQYQVVLVEPKTAWRLDCAQLKEKNQWQLSADDLKKLKPGLEKDFLPLYFGWFLTKKSSETLRKAGQVFLEELGNHKAFKKELRQFVPGDEPREKMDLVTYFGKRPPGVLHCTTKFCDYGKAPGAEEYAQQDVLKKSYSKAFTLTISALFVTPKTTGARVELSEQQLQLWPSDVDKLSPTDNLPRGSRAHITLGCAADVEAVQTGLDLLEILRQEKGGSRGEEVGELSRGKLYSLGNGRWMLTLAKNMEVRAIFTGYYGKGKPVPTQGSRKGGALQSCTII | binds
Acyl-Coenzyme A dehydrogenase, C-4 to C-12 straight chain, isoform CRA_a (protein, UniProt P11310 26-421) KANRQREPGLGFSFEFTEQQKEFQATARKFAREEIIPVAAEYDKTGEYPVPLIRRAWELGLMNTHIPENCGGLGLGTFDACLISEELAYGCTGVQTAIEGNSLGQMPIIIAGNDQQKKKYLGRMTEEPLMCAYCVTEPGAGSDVAGIKTKAEKKGDEYIINGQKMWITNGGKANWYFLLARSDPDPKAPANKAFTGFIVEADTPGIQIGRKELNMGQRCSDTRGIVFEDVKVPKENVLIGDGAGFKVAMGAFDKTRPVVAAGAVGLAQRALDEATKYALERKTFGKLLVEHQAISFMLAEMAMKVELARMSYQRAAWEVDSGRRNTYYASIAKAFAGDIANQLATDAVQILGGNGFNTEYPVEKLMRDAKIYQIYEGTSQIQRLIVAREHIDKYKN | binds
Medium-chain specific acyl-CoA dehydrogenase, mitochondrial (protein, UniProt P11310 26-421) KANRQREPGLGFSFEFTEQQKEFQATARKFAREEIIPVAAEYDKTGEYPVPLIRRAWELGLMNTHIPENCGGLGLGTFDACLISEELAYGCTGVQTAIEGNSLGQMPIIIAGNDQQKKKYLGRMTEEPLMCAYCVTEPGAGSDVAGIKTKAEKKGDEYIINGQKMWITNGGKANWYFLLARSDPDPKAPANKAFTGFIVEADTPGIQIGRKELNMGQRCSDTRGIVFEDVKVPKENVLIGDGAGFKVAMGAFDKTRPVVAAGAVGLAQRALDEATKYALERKTFGKLLVEHQAISFMLAEMAMKVELARMSYQRAAWEVDSGRRNTYYASIAKAFAGDIANQLATDAVQILGGNGFNTEYPVEKLMRDAKIYQIYEGTSQIQRLIVAREHIDKYKN | binds
Transcription termination factor 2 (protein, UniProt Q9UNY4 1-1162) MEEVRCPEHGTFCFLKTGVRDGPNKGKSFYVCRADTCSFVRATDIPVSHCLLHEDFVVELQGLLLPQDKKEYRLFFRCIRSKAEGKRWCGSIPWQDPDSKEHSVSNKSQHASETFHHSSNWLRNPFKVLDKNQEPALWKQLIKGEGEEKKADKKQREKGDQLFDQKKEQKPEMMEKDLSSGLVPKKKQSVVQEKKQEEGAEIQCEAETGGTHKRDFSEIKSQQCQGNELTRPSASSQEKSSGKSQDVQRESEPLREKVTQLLPQNVHSHNSISKPQKGGPLNKEYTNWEAKETKAKDGPSIQATQKSLPQGHFQERPETHSVPAPGGPAAQAAPAAPGLSLGEGREAATSSDDEEEDDVVFVSSKPGSPLLFDSTLDLETKENLQFPDRSVQRKVSPASGVSKKVEPSDPVARRVYLTTQLKQKKSTLASVNIQALPDKGQKLIKQIQELEEVLSGLTLSPEQGTNEKSNSQVPQQSHFTKTTTGPPHLVPPQPLPRRGTQPVGSLELKSACQVTAGGSSQCYRGHTNQDHVHAVWKITSEAIGQLHRSLESCPGETVVAEDPAGLKVPLLLHQKQALAWLLWRESQKPQGGILADDMGLGKTLTMIALILTQKNQEKKEEKEKSTALTWLSKDDSCDFTSHGTLIICPASLIHHWKNEVEKRVNSNKLRVYLYHGPNRDSRARVLSTYDIVITTYSLVAKEIPTNKQEAEIPGANLNVEGTSTPLLRIAWARIILDEAHNVKNPRVQTSIAVCKLQACARWAVTGTPIQNNLLDMYSLLKFLRCSPFDEFNLWRSQVDNGSKKGGERLSILTKSLLLRRTKDQLDSTGRPLVILPQRKFQLHHLKLSEDEETVYNVFFARSRSALQSYLKRHESRGNQSGRSPNNPFSRVALEFGSEEPRHSEAADSPRSSTVHILSQLLRLRQCCCHLSLLKSALDPMELKGEGLVLSLEEQLSALTLSELRDSEPSSTVSLNGTFFKMELFEGMRESTKISSLLAELEAIQRNSASQKSVIVSQWTNMLKVVALHLKKHGLTYATIDGSVNPKQRMDLVEAFNHSRGPQVMLISLLAGGVGLNLTGGNHLFLLDMHWNPSLEDQACDRIYRVGQQKDVVIHRFVCEGTVEEKILQLQEKKKDLAKQVLSGSGESVTKLTLADLRVLFGI | binds
3-hydroxyacyl-CoA dehydrogenase type-2 (Q99714) (protein, UniProt Q99714 1-261) MAAACRSVKGLVAVITGGASGLGLATAERLVGQGASAVLLDLPNSGGEAQAKKLGNNCVFAPADVTSEKDVQTALALAKGKFGRVDVAVNCAGIAVASKTYNLKKGQTHTLEDFQRVLDVNLMGTFNVIRLVAGEMGQNEPDQGGQRGVIINTASVAAFEGQVGQAAYSASKGGIVGMTLPIARDLAPIGIRVMTIAPGLFGTPLLTSLPEKVCNFLASQVPFPSRLGDPAEYAHLVQAIIENPFLNGEVIRLDGAIRMQP | binds
3-hydroxyacyl-CoA dehydrogenase type-2 (Q5H928) (protein, UniProt Q99714 1-261) MAAACRSVKGLVAVITGGASGLGLATAERLVGQGASAVLLDLPNSGGEAQAKKLGNNCVFAPADVTSEKDVQTALALAKGKFGRVDVAVNCAGIAVASKTYNLKKGQTHTLEDFQRVLDVNLMGTFNVIRLVAGEMGQNEPDQGGQRGVIINTASVAAFEGQVGQAAYSASKGGIVGMTLPIARDLAPIGIRVMTIAPGLFGTPLLTSLPEKVCNFLASQVPFPSRLGDPAEYAHLVQAIIENPFLNGEVIRLDGAIRMQP | binds
